Measured values: patent US10596152B2, “Selenium containing KGA/GDH dual inhibitors and the applications thereof” (HANGZHOU GAMMA BIOTECH CO., LTD., priority 2015, dated 2020)
Some entries share one result that the patent states for a list of compounds.

Columns and labels:
Solubility = type: physicochemical
Stability = type: physicochemical
KGA = molecular target: T1, KGA (Homo sapiens, UniProt O94925); assay: Inhibition of KGA (glutaminase); type: biochemical
T1 sequence (O94925 55-669): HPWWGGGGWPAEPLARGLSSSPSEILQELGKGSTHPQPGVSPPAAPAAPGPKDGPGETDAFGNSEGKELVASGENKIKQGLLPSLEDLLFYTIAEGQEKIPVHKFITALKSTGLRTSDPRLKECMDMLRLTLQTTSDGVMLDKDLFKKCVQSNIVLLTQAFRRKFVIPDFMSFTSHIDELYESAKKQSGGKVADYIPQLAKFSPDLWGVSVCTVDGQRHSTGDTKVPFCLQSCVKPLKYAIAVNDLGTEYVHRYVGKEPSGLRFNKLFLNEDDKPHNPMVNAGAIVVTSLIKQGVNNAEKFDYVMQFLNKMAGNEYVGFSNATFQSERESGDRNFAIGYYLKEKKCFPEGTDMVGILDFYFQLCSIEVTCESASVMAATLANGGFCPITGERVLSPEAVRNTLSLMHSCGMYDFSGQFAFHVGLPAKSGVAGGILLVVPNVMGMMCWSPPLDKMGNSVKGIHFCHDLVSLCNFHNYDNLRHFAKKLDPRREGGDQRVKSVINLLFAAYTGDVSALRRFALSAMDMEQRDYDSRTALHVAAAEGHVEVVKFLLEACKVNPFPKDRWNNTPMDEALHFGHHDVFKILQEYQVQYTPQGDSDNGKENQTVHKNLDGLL

SMILES | Solubility (Solubility) | Stability (Stability) | Inhibition of KGA (KGA)
O=c1c2ccccc2[se]n1CCSCCn1[se]c2ccccc2c1=O [Compound 7, Thioethyletherselen] | improved | improved | KGA allosteric inhibitors
CN(C)CCOc1ccc2[se]n(CCCCCCn3[se]c4ccc(O)cc4c3=O)c(=O)c2c1 [Compound 8, Hexane-(N,N-dimethylamine-ethyloxyl)-hydroxyl-selen] | improved | improved | KGA allosteric inhibitors
COc1ccc2[se]n(CCCCCCn3[se]c4ccc(OCCCN(C)C)cc4c3=O)c(=O)c2c1 [Compound 9, Hexane-(N,N-dimethylamine-propyloxyl)-methoxyl-selen] | improved | improved | KGA allosteric inhibitors
CN(C)CCOc1ccc2[se]n(CCCCCCn3[se]c4ccc(OC(F)(F)F)cc4c3=O)c(=O)c2c1 [Compound 12, N,N-dimethylethyloxy hexane selen] | improved | improved | KGA allosteric inhibitors
O=c1c2ccccc2[se]n1Cc1cccc(Cn2[se]c3ccccc3c2=O)c1 [Compound 13, m-dimethyl benzene selen] | improved | improved | KGA allosteric inhibitors
COc1ccc2[se]n(Cc3cccc(Cn4[se]c5ccc(OCCN(C)C)cc5c4=O)c3)c(=O)c2c1 [Compound 14, m-dimethyl benzene N,N-dimethylethyloxyselen] | improved | improved | KGA allosteric inhibitors
COc1ccc2[se]n(-c3nnc(NC4CCN(c5nnc(-n6[se]c7ccc(OC)cc7c6=O)s5)CC4)s3)c(=O)c2c1 [Compound 17, Aminopyperidine-dithioazole-methoxyselen] | improved | improved | KGA allosteric inhibitors
COc1ccc2[se]n(-c3nnc(OC4CCN(c5nnc(-n6[se]c7ccc(OC)cc7c6=O)s5)CC4)s3)c(=O)c2c1 [Compound 18, Hydroxylpyperidine-dithioazole-methoxyselen] | improved | improved | KGA allosteric inhibitors
COc1ccc2[se]n(-c3nnc(OC[C@@H]4CCN(c5nnc(-n6[se]c7ccc(OC)cc7c6=O)s5)C4)s3)c(=O)c2c1 [Compound 19, Pyrrolidine dithioazolemethoxy-selen] | improved | improved | KGA allosteric inhibitors
O=c1c2ccccc2[se]n1-c1nnc(NC2CCN(c3nnc(-n4[se]c5ccccc5c4=O)s3)CC2)s1 [Compound 20, Aminopyperidine-dithioazolemethoxy-selen] | improved | improved | KGA allosteric inhibitors
O=c1c2ccccc2[se]n1-c1nnc(OC2CCN(c3nnc(-n4[se]c5ccccc5c4=O)s3)CC2)s1 [Compound 21, Hydroxylpyperidine-dithioazole-selen] | improved | improved | KGA allosteric inhibitors
O=c1c2ccccc2[se]n1-c1nnc(OC[C@@H]2CCN(c3nnc(-n4[se]c5ccccc5c4=O)s3)C2)s1 [Compound 22, Pyrrolidine dithiodiazole-selen] | improved | improved | KGA allosteric inhibitors
O=c1c2ccccc2[se]n1-c1nnc(NCc2cccc(CNc3nnc(-n4[se]c5ccccc5c4=O)s3)c2)s1 [Compound 23, m-phenyldiaminedithiodiazoleselen] | improved | improved | KGA allosteric inhibitors
COc1ccc2[se]n(CCCCCCn3[se]c4ccc(OCCCC#N)cc4c3=O)c(=O)c2c1 [Compound 24, cynide hexylselen] | improved | improved | KGA allosteric inhibitors
C#CCCCOc1ccc2[se]n(CCCCCCn3[se]c4ccc(OC)cc4c3=O)c(=O)c2c1 [Compound 25, Alkyne hexylselen] | improved | improved | KGA allosteric inhibitors
COc1ccc2[se]n(CCCCCCn3[se]c4ccc(OCCCn5nnc(CCCCCC6SCC7NC(=O)NC76)n5)cc4c3=O)c(=O)c2c1 (stereo not drawn) [Compound 26, biotin hexylselen] | improved | improved | KGA allosteric inhibitors
O=C(Cc1cccc(OC(F)(F)F)c1)Nc1ccc(CCCCc2nnc(-n3[se]c4ccccc4c3=O)s2)nn1 [Compound 28, Pyridazine thiodiazoleSelen] | improved | improved | KGA allosteric inhibitors
